Source: PubChem BioAssay AID1053133 (Broad Institute, 2014).

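Plate-reader measure of the Venus reporter marking one vaccinia stage in infected cells (the cell line is not named here); read time unknown. The test concentration is not given here. Percent change in Venus reporter signal; lower (more negative) values mean stronger inhibition of that viral stage.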

Values are in %. The controls that fix the scale are not given here. Common to all entries: measured here: Venus reporter, other viral stage. Part of the compounds only, not a random draw; the main read-out is not listed here.

SMILES: Cc1ccc(S(=O)(=O)Nc2ccc3c(c2)C(=O)N([C@H](C)CO)C[C@H](C)[C@@H](CN(C)Cc2ccc(C(F)(F)F)cc2)OCCCC[C@@H](C)O3)cc1
activity change (Venus) (%): -51.08

SMILES: C[C@@H]1CCCCO[C@@H](CN(C)Cc2ccccc2)[C@H](C)CN([C@@H](C)CO)C(=O)c2cc(NC(=O)Cc3ccccc3)ccc2O1
activity change (Venus) (%): -39.03

SMILES: C[C@@H]1CN([C@@H](C)CO)C(=O)c2cccc(N(C)C)c2O[C@H]1CN(C)C(=O)Nc1cccc2ccccc12
activity change (Venus) (%): -71.95

SMILES: O=C(Nc1ccccc1)N1CCCCN2[C@H](CO)[C@@H](c3ccc(-c4ccccc4)cc3)[C@@H]2C1
activity change (Venus) (%): -32.44

SMILES: COc1ccccc1-c1cccc(-c2nc(C(=O)Nc3nccs3)cc3c2[C@H](CCO)N(C(=O)CC2CC2)C3)c1
activity change (Venus) (%): -37.87

SMILES: C[C@H](O)C#Cc1ccc2c(c1)O[C@H](CN(C)Cc1ccc(-c3ccccc3)cc1)[C@@H](C)CN([C@@H](C)CO)S2(=O)=O
activity change (Venus) (%): -74.57

SMILES: O=C(C[C@@H]1CC[C@@H]2[C@H](COC[C@H](O)CN2CCc2ccccc2)O1)NCc1ccc(Oc2ccccc2)cc1
activity change (Venus) (%): -79.95

SMILES: C[C@@H]1CCCCO[C@@H](CN(C)C(=O)C2CCCCC2)[C@H](C)CN([C@H](C)CO)C(=O)c2cc(NC(=O)Cc3ccccc3)ccc2O1
activity change (Venus) (%): -37.91

SMILES: COc1ccc([Si](C)(C)[C@H]2[C@H](CCO)O[C@@]3(C(=O)N(Cc4cccc(N5CCCCC5=O)c4)c4ccccc43)[C@@H]2C)cc1
activity change (Venus) (%): -27.39

SMILES: O=C(Cc1cccnc1)N1CCCCN2[C@@H](CO)[C@H](c3ccc(C#CC4CCCC4)cc3)[C@@H]2C1
activity change (Venus) (%): -49.82

SMILES: COCC(=O)N1[C@@H](C#N)[C@@H](c2ccc(C#CCC3CCCC3)cc2)[C@@H]1CO
activity change (Venus) (%): -42.31

SMILES: COc1ccc(CN(C)C[C@@H]2Oc3c(NC(=O)Nc4ccc(C(F)(F)F)cc4)cccc3C(=O)N([C@H](C)CO)C[C@@H]2C)cc1
activity change (Venus) (%): -44.45

SMILES: COc1cccc(-c2ccc3c(c2)O[C@@H](CN(C)C(=O)c2ccccc2F)[C@@H](C)CN([C@@H](C)CO)S3(=O)=O)c1
activity change (Venus) (%): -43.81

SMILES: CCN(C[C@H]1N[C@H](CO)[C@@H]1c1ccc(-c2ccc(F)cc2)cc1)C(=O)COC
activity change (Venus) (%): -41.6

SMILES: C[C@@H]1CN([C@H](C)CO)C(=O)c2cc(-c3cccnc3)cnc2O[C@H]1CN(C)Cc1ccc(-c2ccccc2)cc1
activity change (Venus) (%): -94.43

SMILES: C[C@H]1CCCCO[C@H](CN(C)C(=O)CCC(F)(F)F)[C@@H](C)CN([C@@H](C)CO)C(=O)c2cc(NC(=O)C3CCCCC3)ccc2O1
activity change (Venus) (%): -37.04

SMILES: C[C@@H]1CN([C@H](C)CO)C(=O)c2cc(NS(=O)(=O)c3ccc(F)cc3)ccc2O[C@@H](C)CCCCO[C@@H]1CN(C)CC1CCCCC1
activity change (Venus) (%): -74.54

SMILES: O=C(C1=C[C@H](C2CCCCC2)C[C@H](OCc2ccc(CO)cc2)O1)N1CCN(Cc2ccccc2)CC1
activity change (Venus) (%): -36.08

SMILES: COc1ccc(CN(C)C[C@H]2OCCCC[C@H](C)Oc3ccc(NC(=O)Nc4ccc(C(F)(F)F)cc4)cc3C(=O)N([C@@H](C)CO)C[C@@H]2C)cc1
activity change (Venus) (%): -42.88

SMILES: O=C(c1ccc2c(c1)OCO2)N1CC(=O)N2[C@H](CO)[C@@H](c3ccc(C#CC4CCCC4)cc3)[C@H]2C1
activity change (Venus) (%): -32.7

SMILES: CC(C)C#Cc1ccc2c(c1)O[C@@H](CN(C)C(=O)Nc1ccccc1)[C@@H](C)CN([C@@H](C)CO)S2(=O)=O
activity change (Venus) (%): -41.98

SMILES: C[C@H]1CN([C@@H](C)CO)S(=O)(=O)c2ccc(C#CC3CC3)cc2O[C@@H]1CN(C)Cc1ccccc1F
activity change (Venus) (%): -56.51

Some entries from above, unchanged:

- O=C(C1=C[C@H](C2CCCCC2)C[C@H](OCc2ccc(CO)cc2)O1)N1CCN(Cc2ccccc2)CC1 : activity change (Venus) -36.08%
- C[C@@H]1CCCCO[C@@H](CN(C)C(=O)C2CCCCC2)[C@H](C)CN([C@H](C)CO)C(=O)c2cc(NC(=O)Cc3ccccc3)ccc2O1 : activity change (Venus) -37.91%
- C[C@H](O)C#Cc1ccc2c(c1)O[C@H](CN(C)Cc1ccc(-c3ccccc3)cc1)[C@@H](C)CN([C@@H](C)CO)S2(=O)=O : activity change (Venus) -74.57%